Z-score data for 106 sequences are collected here from PubChem BioAssay AID1508600 (Functional Genomics Laboratory (NCATS/FGL), 2020).

Among all 53,000 sequences or so, about 3,700 (7%) were called active.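 The calls were made as follows: active = gene knockdowns whose robust z-score for IL-1 alpha signal is at least 2 or at most -2, so actives lie on both sides; inactive = the rest.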 This is one part of the list.

A short description of the experiment: Components of the Cytosolic LPS Sensing Pathway: Gene Identification via Genome-wide siRNA Screen.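 Also: robust z of the log signal after scaling to non-targeting control siRNA wells of the plate.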 The settings on record: RAW264.7 macrophages, IL-1a HTRF, actives lie on both sides, screened at 100 nM (by protocol), cells primed 5 h with Pam3CSK4 first. The method in brief:
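Read-out: IL-1a HTRF on supernatant, divided by plate negative-control median ×100, log-transformed and converted to robust z-score. Cells were RAW264.7 given 100 nM siRNA, Pam3CSK4-primed 5 hours, then LipidA-transfected 24 hour.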
Turning to GGAAACCUCCGAAAGGCAUTT against Rcor1, the z-score is inactive: -0.0503. The figure for GGAUCUUCUUCUAUCAGUCTT against Ncf4 is inactive: 0.487. For the sequence CCAAAUGAUUCUGUGGCUGTT against Cebpe, the z-score was inactive: -1.24. The same measure for GGAUGCACUAUCAUUAAGCTT against Tpx2: inactive: -0.118. The figure for GGGUUUUGCUACAUCAAUGTT against Pgm2l1 is inactive: 0.853. As for GGAUAUCCGCCUCACUCUUTT against Golph3l, the z-score was inactive: 0.813. With GGCAAAGGACUUCAUGGCUTT against B4galt4, the z-score was inactive: -1.42.

As for “CCACUUAACGAAGAAAUUATT against 8030462N17Rik”, the z-score was inactive: 0.891. Turning to GGCAGAAAAGAUGGAAAAUTT against Evi5l, the z-score was active: -2.1.

As for CCACCCUGUAUGAAUUUCUTT against Ripply3, the z-score was inactive: -1.14.

For the sequence GGGAUUUUGCUGAAACUCATT against Klhl12, the z-score was inactive: 0.531. GCUUGGCAGGUGAAUGUCATT against Oprm1: the z-score is inactive: -0.686. Consider GGAUGAUGAAGUCAAAUUUTT against Slc26a5, for which the z-score is inactive: 0.0656.

For the sequence GGUUGAAGAUGAAAGAAGATT against Sin3a, the z-score was inactive: 0.132. For the sequence CGCAUAUUGAGAUAUCUUGTT against Cbln3, the z-score was inactive: -0.343. CCACACGAGUAUUUUAGUATT against Tmem150a: the z-score is inactive: -1.2.

Regarding GCCGUUGGUCGUGUUCGUUTT against Cmpk1, the z-score was inactive: 0.927. Consider GCAGCAAGUUUUGUCAGGGTT against Tmprss13, for which the z-score is inactive: -1.06.

GGCAUGUCUUAAUUUCAUUTT against Shisa2: the z-score was inactive: 0.333. Take GGAUAGAUGGUACACGUCUTT against Khdc3: the z-score is inactive: 1. The same measure for GGAACACAAACUGAAAGUCTT against Elac2: inactive: 0.103. The same measure for “CCUCGACAUCUAAUGAAGATT against 4933405O20Rik”: inactive: -1.58; for GCAACUGGCAGUCGCCUAUTT against Zfp940: inactive: 0.381.

On to GGGUAUGUGCAAAUAUUCATT against Anln, for which the z-score was inactive: -0.709. Take GCAAAUCGAAAGCGGAGGUTT against Fem1c: the z-score was inactive: 0.302. On to GGAAUUCAGGGAGCUUCGATT against Vps50, for which the z-score was inactive: -1.63. The figure for UGAUCUACACUUUGGCUGUTT against Olfr235 is inactive: -0.943; for GCAAACUGCUCUGUGGUAUTT against Olfr1310 it is inactive: -1.65; for CGUGUUUCGACACCUCCUUTT against Taar9 it is inactive: 1.39. With CGAGCUAGAAGAGCUUCCATT against Hdgfl2, the z-score was inactive: -0.829.

As to GGGAAUGUCUGAAAGUCCCTT against Klhdc10, the z-score was inactive: 0.66. On to GGUUGGUUCUUACUUGAAATT against Mindy3, for which the z-score was inactive: 0.613.

As for GAAGUUCAAUGGAGAAGACTT against Arl2, the z-score is inactive: -0.825. The figure for GCCAAUCUGGUGAUACUUCTT against Vmn1r71 is inactive: -1.64; for GGUUGUGGCCAUCAAGAAATT against Mapk15 it is inactive: 0.108; for GGAGGAGUUCAUUGAGGCATT against Elf5 it is inactive: -0.0248. GGUUUUUGUGGAAAUGUGGTT against Smpd4: the z-score was active: -2.58. For “CGCCUUCCUUCAACACGCATT against 1700049L16Rik”, the z-score was inactive: -1.12. As to GCAAGAGGAGGACGAAAAGTT against Ssna1, the z-score was inactive: -0.0483. Turning to GGUUUAAAUGCAGUUCACATT against Arl9, the z-score is inactive: 0.587.

Regarding GGGUCUGGAGAAUCUUCAGTT against Tgfb1i1, the z-score is inactive: 0.923.

Regarding GGAAAAGUGAUAGUGGCUCTT against Ccnl2, the z-score was inactive: -1.48.

With GCACUACUGAUGGGUUUCUTT against Nme2, the z-score was inactive: 1.7. For GGUCAGUCCCUAGAUUAUATT against Fcgbp, the z-score is inactive: -0.816. The same measure for GGAAGAUCCGCUUCAACGUTT against Mab21l4: inactive: 1.2. For GCCCUGCUAGACAUUCUCUTT against Arrdc1, the z-score is inactive: -1.48. Regarding CCGAUUCACUGUCCCUUUATT against Slc25a47, the z-score is inactive: 0.59. For GGGCAUAUUCACUUUAAAATT against Dram1, the z-score is inactive: 0.209. As for GGACCAGUGUCUUUUCAGATT against Hmmr, the z-score is inactive: 0.257. With GGUUGAUUUGUAGGGAGAGTT against Olfr1110, the z-score is inactive: 1.44. On to AUGGUGCUGUUUUAUUUGUTT against Olfr671, for which the z-score is inactive: -0.807. The figure for GGCACCGAGAUUGUCAUUCTT against Olfr1246 is inactive: -0.893; for GGCAGUGCUGGCAACAAAUTT against Hsd3b5 it is inactive: -0.884. With CCAAUCAGCAACUUCUUAUTT against Fbxl21, the z-score was inactive: -0.661.

For GGUGGUACAGGAUCUAUGUTT against Etfa, the z-score was inactive: -1.35. On to CCAUUGCAUAUUUAGUAGCTT against Sox11, for which the z-score was inactive: -0.765.

Regarding “GGUUUAAACCAGAAAAAUGTT against 4930524B15Rik”, the z-score was inactive: 1.36. Turning to GGCACAAAAGAAGAUCCUGTT against Tnfaip8, the z-score was inactive: -1.53.

With GGAUCCUGCUAAGACCAUCTT against Sstr3, the z-score was inactive: 0.602. As to GGAAGAGAAGCAAAUCCAATT against Spats2l, the z-score was inactive: -1.09. Consider GGUUAUAUGCAGAGGAACUTT against Arid1a, for which the z-score is inactive: -0.436. Turning to GAACCAUCCGAGUAUGGCUTT against Wdfy1, the z-score is inactive: 0.847. For the sequence GGAAGUCUAGGUAAAAAAGTT against Samsn1, the z-score is inactive: -0.994.

Turning to GGUUUACACCCUCAGAUCATT against Cct7, the z-score was inactive: -0.985. In the case of GGCAUGACUUCCACAUGAATT against Pdcd1, the z-score was inactive: 0.672. With GGUCAAGUUAAGGUAUUUCTT against Pkhd1, the z-score is inactive: -0.0863. For the sequence GGAAAAAUUGACCAAAGGATT against Gpalpp1, the z-score was inactive: 1.25.

On to CCCGUUAUCUUCCCAACUGTT against Krtap31-1, for which the z-score was inactive: -0.226. As for GGUCAUUGAAAACUGUGCGTT against Sardh, the z-score is inactive: -1.04. As to GGUGAUUUGAACCUUUUGATT against Rab3d, the z-score is inactive: -0.63. Regarding GGACGUAGAAGUUUGGGAGTT against Nupl2, the z-score is inactive: 1.39. On to CCGCUCACUUCUUGAAUAUTT against Rnf125, for which the z-score was inactive: 0.388. On to GCCAUUAAUGUACCAGGUUTT against Olfr894, for which the z-score was inactive: -0.202. For GGAACAAUCAAACUGGCUGTT against Cdk1, the z-score was inactive: -1.39. The figure for GCCCUGUACAGUCAGUACATT against Kifbp is inactive: 1.43; for CCUGAUGCAACACAGGUCCTT against Zbtb26 it is inactive: 0.352; for GGGUGGUAACAACAUUAAATT against Bicc1 it is inactive: -0.649. Regarding GGGUAACAGUGCCUUUACUTT against Med12, the z-score was inactive: 0.47. The figure for GGGCAUUUAAAAUAAGGCATT against Nfib is inactive: 0.677.

Turning to GGCCAAUCUCACCUGGACATT against Man2b1, the z-score was inactive: -0.421. For CCACACCAAGGACUUAUGGTT against Cd248, the z-score was inactive: -0.584. The same measure for GCUACGCUUCCUUAUUUGCTT against Tubgcp3: inactive: 0.525; for GGAUGAGAAACUUCAGCUGTT against Dnajc22: inactive: -0.861; for CGAACCAUAGCUAGCUCCATT against Klhdc8b: inactive: -0.869.

As for GCACAUUGGGAUAGCUGCATT against Trim65, the z-score is inactive: 1.48.

For the sequence GCCAUCCUUCCAUUUAAGATT against Wdyhv1, the z-score is inactive: -0.478. On to GGGAACUGUUCCAUCUUGCTT against Olfr606, for which the z-score is inactive: 0.979. The figure for CCCUUAGUUUGACACACUUTT against Tal2 is inactive: -0.301. GGAGGAAUUUGAGAAGAAUTT against Lasp1: the z-score was inactive: 0.402. The figure for GGCUUGAUCAUGACUUAAATT against Armc8 is inactive: 0.638. Regarding GGGAAUUCCUUUAUUGAUCTT against Dhrs9, the z-score was inactive: -1.9.

Take GAGAGAGAAUACCACUGUGTT against Gm5431: the z-score was inactive: -0.244. Take GCUUUGGUAGAUCCUAAUATT against Ms4a7: the z-score is inactive: 0.816. GGCAAUGUCAGAGCUAAUCTT against Mettl25: the z-score was inactive: 0.596. In the case of GGAACCAAUAAAUCUGUGCTT against Rfxank, the z-score was inactive: 1.31.

Consider CCAAAUACCAUUUCCUACATT against Olfr495, for which the z-score was inactive: 1.21. On to GCAUUCAUUUGAGCUCGGUTT against Emc10, for which the z-score is inactive: -0.00572. As for GGUUUGAUUAUACCUAUCATT against Tenm2, the z-score is inactive: -0.337.

As for GGAAGUCCGUUUUUAAGAATT against Zfp14, the z-score is inactive: -0.276. On to GGGUUAUAACUCCUAUUUCTT against Apex2, for which the z-score is inactive: -0.973. The same measure for CCUGUUACCCUAUAUUUUGTT against Vmn1r82: inactive: -1.02; for GGAUCGAAAUAGCUCAUGCTT against Hoxa5: inactive: 0.64; for GCUAUAAAAUCUGCACAAGTT against Amy2a5: inactive: 0.378. Regarding GGUGACCAAACUUAUCUACTT against Ercc2, the z-score was inactive: -1.15. Turning to GGAGAAAUUGCCUUUGAUCTT against Pdik1l, the z-score was inactive: 0.416. The figure for CGCAAAGACUUAUAUUGAGTT against Nsrp1 is inactive: -0.511.
